Test results reported in paper PMC10298753.
No constants are given. Whether binding was seen depends on the method and setting. In cells and extracts the contact can be indirect. Binding calls can cover weak binding; strength is not graded here.

Key:
[1] = target: purified bovine tubulin (microtubules) (bovine); experiment: co-sedimentation; in vitro translated IFT74 constructs incubated with or without microtubules and spun through a sucrose gradient at lower g forces; pellet and supernatant probed by western blot; only the target purified
[2] = target: purified bovine tubulin (microtubules) (bovine); experiment: co-sedimentation; in vitro translated IFT74 constructs incubated with purified bovine tubulin (microtubules), without IFT81; centrifuged at 100,000 g; pellet and supernatant probed for tubulin and IFT74; only the target purified

binding [1] | binding [2] | Binder
binds |  | in vitro translated IFT74Δexon2 (domain or fragment, UniProt Q96LB3-1 41-600) MPPGTARPGSRGCPIGTGGVLSSQIKVAHRPVTQQGLTGMKTGTKGPQRQILDKSYYLGLLRSKISELTTEVNKLQKGIEMYNQENSVYLSYEKRAETLAVEIKELQGQLADYNMLVDKLNTNTEMEEVMNDYNMLKAQNDRETQSLDVIFTERQAKEKQIRSVEEEIEQEKQATDDIIKNMSFENQVKYLEMKTTNEKLLQELDTLQQQLDSQNMKKESLEAEIAHSQVKQEAVLLHEKLYELESHRDQMIAEDKSIGSPMEEREKLLKQIKDDNQEIASMERQLTDTKEKINQFIEEIRQLDMDLEEHQGEMNQKYKELKKREEHMDTFIETFEETKNQELKRKAQIEANIVALLEHCSRNINRIEQISSITNQELKMMQDDLNFKSTEVQKSQSTAQNLTSDIQRLQLDLQKMELLESKMTEEQHSLKSKIKQMTTDLEIYNDLPALKSSGEEKIKKLHQERMILSTHRNAFKKIMEKQNIEYEALKTQLQENETHSQLTNLERKWQHLEQNNFAMKEFIATKSQESDYQPIKKNVTKQIAEYNKTIVDALHSTSGN
binds | binds | in vitro translated full length IFT74 (protein, UniProt Q96LB3-1 1-600) MASNHKSSAARPVSRGGVGLTGRPPSGIRPLSGNIRVATAMPPGTARPGSRGCPIGTGGVLSSQIKVAHRPVTQQGLTGMKTGTKGPQRQILDKSYYLGLLRSKISELTTEVNKLQKGIEMYNQENSVYLSYEKRAETLAVEIKELQGQLADYNMLVDKLNTNTEMEEVMNDYNMLKAQNDRETQSLDVIFTERQAKEKQIRSVEEEIEQEKQATDDIIKNMSFENQVKYLEMKTTNEKLLQELDTLQQQLDSQNMKKESLEAEIAHSQVKQEAVLLHEKLYELESHRDQMIAEDKSIGSPMEEREKLLKQIKDDNQEIASMERQLTDTKEKINQFIEEIRQLDMDLEEHQGEMNQKYKELKKREEHMDTFIETFEETKNQELKRKAQIEANIVALLEHCSRNINRIEQISSITNQELKMMQDDLNFKSTEVQKSQSTAQNLTSDIQRLQLDLQKMELLESKMTEEQHSLKSKIKQMTTDLEIYNDLPALKSSGEEKIKKLHQERMILSTHRNAFKKIMEKQNIEYEALKTQLQENETHSQLTNLERKWQHLEQNNFAMKEFIATKSQESDYQPIKKNVTKQIAEYNKTIVDALHSTSGN
